T1: MCR-1 full-length protein (E. coli (strain SHP45))
T1 sequence: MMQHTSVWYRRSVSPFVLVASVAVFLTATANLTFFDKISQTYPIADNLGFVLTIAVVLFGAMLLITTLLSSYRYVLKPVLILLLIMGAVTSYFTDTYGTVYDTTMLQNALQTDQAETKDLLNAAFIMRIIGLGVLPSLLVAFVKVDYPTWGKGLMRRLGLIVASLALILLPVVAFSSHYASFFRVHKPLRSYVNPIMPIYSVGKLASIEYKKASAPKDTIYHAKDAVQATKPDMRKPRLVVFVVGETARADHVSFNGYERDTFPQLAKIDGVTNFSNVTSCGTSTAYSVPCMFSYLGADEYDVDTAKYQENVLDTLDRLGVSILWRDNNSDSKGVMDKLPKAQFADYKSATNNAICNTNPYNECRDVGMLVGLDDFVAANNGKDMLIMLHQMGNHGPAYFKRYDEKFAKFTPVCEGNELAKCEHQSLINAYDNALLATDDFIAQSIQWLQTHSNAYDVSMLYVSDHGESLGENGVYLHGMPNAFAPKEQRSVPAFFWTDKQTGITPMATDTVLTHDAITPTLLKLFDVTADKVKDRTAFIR

Amino acid sequences for entries named in this document (tags omitted).
UniProt P0A6N2: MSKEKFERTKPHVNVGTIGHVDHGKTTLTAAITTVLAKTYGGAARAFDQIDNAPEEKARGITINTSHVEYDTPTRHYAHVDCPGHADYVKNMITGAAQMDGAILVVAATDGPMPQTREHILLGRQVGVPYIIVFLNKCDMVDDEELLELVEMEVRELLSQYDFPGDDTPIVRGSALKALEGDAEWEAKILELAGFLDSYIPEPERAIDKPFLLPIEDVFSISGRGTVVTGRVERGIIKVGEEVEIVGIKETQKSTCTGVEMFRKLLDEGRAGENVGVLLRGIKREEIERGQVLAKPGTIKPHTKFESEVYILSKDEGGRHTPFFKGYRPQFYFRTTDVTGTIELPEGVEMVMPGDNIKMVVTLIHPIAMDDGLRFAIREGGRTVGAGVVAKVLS
UniProt P0A6F5: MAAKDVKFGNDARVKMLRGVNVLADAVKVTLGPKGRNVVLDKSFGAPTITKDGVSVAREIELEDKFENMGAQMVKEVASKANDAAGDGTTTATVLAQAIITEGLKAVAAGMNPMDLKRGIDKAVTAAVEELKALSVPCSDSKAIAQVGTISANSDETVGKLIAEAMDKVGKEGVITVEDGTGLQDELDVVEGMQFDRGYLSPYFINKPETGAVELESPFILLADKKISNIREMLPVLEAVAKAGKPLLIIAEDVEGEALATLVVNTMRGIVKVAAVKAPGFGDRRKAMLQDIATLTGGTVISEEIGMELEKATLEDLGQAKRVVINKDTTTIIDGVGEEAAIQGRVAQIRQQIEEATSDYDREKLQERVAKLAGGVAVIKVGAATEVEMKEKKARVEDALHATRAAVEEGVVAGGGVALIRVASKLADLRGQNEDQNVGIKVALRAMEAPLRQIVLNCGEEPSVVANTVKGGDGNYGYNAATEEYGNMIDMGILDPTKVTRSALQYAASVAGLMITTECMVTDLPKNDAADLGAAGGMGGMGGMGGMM

T2: MCR-1 (from pUC19-mcr-1) (E. coli)
T2 sequence: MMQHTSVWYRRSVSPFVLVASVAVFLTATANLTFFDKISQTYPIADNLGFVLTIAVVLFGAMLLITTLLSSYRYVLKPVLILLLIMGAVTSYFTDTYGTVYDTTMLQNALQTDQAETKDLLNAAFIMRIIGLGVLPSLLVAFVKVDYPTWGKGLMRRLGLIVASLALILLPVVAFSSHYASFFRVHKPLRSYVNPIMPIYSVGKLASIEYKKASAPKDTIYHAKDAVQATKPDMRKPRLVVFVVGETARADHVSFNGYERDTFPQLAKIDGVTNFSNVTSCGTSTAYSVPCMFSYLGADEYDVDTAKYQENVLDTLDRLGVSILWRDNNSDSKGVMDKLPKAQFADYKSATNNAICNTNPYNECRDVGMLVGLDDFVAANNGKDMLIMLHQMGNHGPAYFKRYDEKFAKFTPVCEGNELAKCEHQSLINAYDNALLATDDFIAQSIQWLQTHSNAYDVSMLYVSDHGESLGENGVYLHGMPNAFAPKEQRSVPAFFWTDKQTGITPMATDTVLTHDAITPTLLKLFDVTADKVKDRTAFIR

B1: Membrane protein insertase YidC (protein, UniProt Q0TB02 1-548)
chain: MDSQRNLLVIALLFVSFMIWQAWEQDKNPQPQAQQTTQTTTTAAGSAADQGVPASGQGKLISVKTDVLDLTINTRGGDVEQALLPAYPKELNSTQPFQLLETSPQFIYQAQSGLTGRDGPDNPANGPRPLYNVEKDAYVLAEGQNELQVPMTYTDAAGNTFTKTFVLKRGDYAVNVNYNVQNAGEKPLEISTFGQLKQSITLPPHLDTGSSNFALHTFRGAAYSTPDEKYEKYKFDTIADNENLNISSKGGWVAMLQQYFATAWIPHNDGTNNFYTANLGNGIAAIGYKSQPVLVQPGQTGAMNSTLWVGPEIQDKMAAVAPHLDLTVDYGWLWFISQPLFKLLKWIHSFVGNWGFSIIIITFIVRGIMYPLTKAQYTSMAKMRMLQPKIQAMRERLGDDKQRISQEMMALYKAEKVNPLGGCFPLLIQMPIFLALYYMLMGSVELRQAPFALWIHDLSAQDPYYILPILMGVTMFFIQKMSPTTVTDPMQQKIMTFMPVIFTVFFLWFPSGLVLYYIVSNLVTIIQQQLIYRGLEKRGLHSREKKKS
B2: Universal stress protein F (protein, UniProt P37903 1-144)
chain: MNRTILVPIDISDSELTQRVISHVEEEAKIDDAEVHFLTVIPSLPYYASLGLAYSAELPAMDDLKAEAKSQLEEIIKKFKLPTDRVHVHVEEGSPKDRILELAKKIPAHMIIIASHRPDITTYLLGSNAAAVVRHAECSVLVVR
B3: Isocitrate dehydrogenase (NADP) (enzyme, UniProt P08200 1-416)
chain: MESKVVVPAQGKKITLQNGKLNVPENPIIPYIEGDGIGVDVTPAMLKVVDAAVEKAYKGERKISWMEIYTGEKSTQVYGQDVWLPAETLDLIREYRVAIKGPLTTPVGGGIRSLNVALRQELDLYICLRPVRYYQGTPSPVKHPELTDMVIFRENSEDIYAGIEWKADSADAEKVIKFLREEMGVKKIRFPEHCGIGIKPCSEEGTKRLVRAAIEYAIANDRDSVTLVHKGNIMKFTEGAFKDWGYQLAREEFGGELIDGGPWLKVKNPNTGKEIVIKDVIADAFLQQILLRPAEYDVIACMNLNGDYISDALAAQVGGIGIAPGANIGDECALFEATHGTAPKYAGQDKVNPGSIILSAEMMLRHMGWTEAADLIVKGMEGAINAKTVTYDFERLMDGAKLLKCSEFGDAIIENM
B4: Major outer membrane lipoprotein Lpp (protein, UniProt P69776 21-78)
chain: CSSNAKIDQLSSDVQTLNAKVDQLSNDVNAMRSDVQAAKDDAARANQRLDNMATKYRK
B5: Chaperone protein Skp (protein, UniProt P0AEU7 21-161)
chain: ADKIAIVNMGSLFQQVAQKTGVSNTLENEFKGRASELQRMETDLQAKMKKLQSMKAGSDRTKLEKDVMAQRQTFAQKAQAFEQDRARRSNEERGKLVTRIQTAVKSVANSQDIDLVVDANAVAYNSSDVKDITADVLKQVK
B6: Galactitol-specific phosphotransferase enzyme IIB component (enzyme, UniProt P37188 1-94)
chain: MKRKIIVACGGAVATSTMAAEEIKELCQNHNIPVELIQCRVNEIETYMDGVHLICTTAKVDRSFGDIPLVHGMPFISGIGIEALQNKILTILQG
B7: UPF0325 protein YaeH (protein, UniProt Q0TLG8 1-128)
chain: MYDNLKSLGITNPEEIDRYSLRQEANNDILKIYFQKDKGEFFAKSVKFKYPRQRKTVVADGVGQGYKEVQEISPNLRYIIDELDQICQRDRSEVDLKRKILDDLRHLESVVTNKISEIEADLEKLTRK
B8: Cell division protein ZapB (protein, UniProt P0AF36 1-81)
chain: MTMSLEVFEKLEAKVQQAIDTITLLQMEIEELKEKNNSLSQEVQNAQHQREELERENNHLKEQQNGWQERLQALLGRMEEV
B9: Succinate dehydrogenase iron-sulfur subunit (enzyme, UniProt P07014 1-238)
chain: MRLEFSIYRYNPDVDDAPRMQDYTLEADEGRDMMLLDALIQLKEKDPSLSFRRSCREGVCGSDGLNMNGKNGLACITPISALNQPGKKIVIRPLPGLPVIRDLVVDMGQFYAQYEKIKPYLLNNGQNPPAREHLQMPEQREKLDGLYECILCACCSTSCPSFWWNPDKFIGPAGLLAAYRFLIDSRDTETDSRLDGLSDAFSVFRCHSIMNCVSVCPKGLNPTRAIGHIKSMLLQRNA
B10: Sec-independent protein translocase protein TatA (protein, UniProt P69428 1-89)
chain: MGGISIWQLLIIAVIVVLLFGTKKLGSIGSDLGASIKGFKKAMSDDEPKQDKTSQDADFTAKTIADKQADTNQEQAKTEDAKRHDKEQV
B11: Tyrosine–tRNA ligase (enzyme, UniProt P0AGJ9 1-424)
chain: MASSNLIKQLQERGLVAQVTDEEALAERLAQGPIALYCGFDPTADSLHLGHLVPLLCLKRFQQAGHKPVALVGGATGLIGDPSFKAAERKLNTEETVQEWVDKIRKQVAPFLDFDCGENSAIAANNYDWFGNMNVLTFLRDIGKHFSVNQMINKEAVKQRLNREDQGISFTEFSYNLLQGYDFACLNKQYGVVLQIGGSDQWGNITSGIDLTRRLHQNQVFGLTVPLITKADGTKFGKTEGGAVWLDPKKTSPYKFYQFWINTADADVYRFLKFFTFMSIEEINALEEEDKNSGKAPRAQYVLAEQVTRLVHGEEGLQAAKRITECLFSGSLSALSEADFEQLAQDGVPMVEMEKGADLMQALVDSELQPSRGQARKTIASNAITINGEKQSDPEYFFKEEDRLFGRFTLLRRGKKNYCLICWK
B12: Aconitate hydratase B (enzyme, UniProt P36683 1-865)
chain: MLEEYRKHVAERAAEGIAPKPLDANQMAALVELLKNPPAGEEEFLLDLLTNRVPPGVDEAAYVKAGFLAAIAKGEAKSPLLTPEKAIELLGTMQGGYNIHPLIDALDDAKLAPIAAKALSHTLLMFDNFYDVEEKAKAGNEYAKQVMQSWADAEWFLNRPALAEKLTVTVFKVTGETNTDDLSPAPDAWSRPDIPLHALAMLKNAREGIEPDQPGVVGPIKQIEALQQKGFPLAYVGDVVGTGSSRKSATNSVLWFMGDDIPHVPNKRGGGLCLGGKIAPIFFNTMEDAGALPIEVDVSNLNMGDVIDVYPYKGEVRNHETGELLATFELKTDVLIDEVRAGGRIPLIIGRGLTTKAREALGLPHSDVFRQAKDVAESDRGFSLAQKMVGRACGVKGIRPGAYCEPKMTSVGSQDTTGPMTRDELKDLACLGFSADLVMQSFCHTAAYPKPVDVNTHHTLPDFIMNRGGVSLRPGDGVIHSWLNRMLLPDTVGTGGDSHTRFPIGISFPAGSGLVAFAAATGVMPLDMPESVLVRFKGKMQPGITLRDLVHAIPLYAIKQGLLTVEKKGKKNIFSGRILEIEGLPDLKVEQAFELTDASAERSAAGCTIKLNKEPIIEYLNSNIVLLKWMIAEGYGDRRTLERRIQGMEKWLANPELLEADADAEYAAVIDIDLADIKEPILCAPNDPDDARPLSAVQGEKIDEVFIGSCMTNIGHFRAAGKLLDAHKGQLPTRLWVAPPTRMDAAQLTEEGYYSVFGKSGARIEIPGCSLCMGNQARVADGATVVSTSTRNFPNRLGTGANVFLASAELAAVAALIGKLPTPEEYQTYVAQVDKTAVDTYRYLNFNQLSQYTEKADGVIFQTAV
B13: HTH-type transcriptional regulator GntR (protein, UniProt P0ACP5 1-331)
chain: MKKKRPVLQDVADRVGVTKMTVSRFLRNPEQVSVALRGKIAAALDELGYIPNRAPDILSNATSRAIGVLLPSLTNQVFAEVLRGIESVTDAHGYQTMLAHYGYKPEMEQERLESMLSWNIDGLILTERTHTPRTLKMIEVAGIPVVELMDSKSPCLDIAVGFDNFEAARQMTTAIIARGHRHIAYLGARLDERTIIKQKGYEQAMLDAGLVPYSVMVEQSSSYSSGIELIRQARREYPQLDGVFCTNDDLAVGAAFECQRLGLKVPDDMAIAGFHGHDIGQVMEPRLASVLTPRERMGSIGAERLLARIRGESVTPKMLDLGFTLSPGGSI
B14: FKBP-type peptidyl-prolyl cis-trans isomerase FkpA (protein, UniProt P45523 26-270)
chain: AEAAKPATAADSKAAFKNDDQKSAYALGASLGRYMENSLKEQEKLGIKLDKDQLIAGVQDAFADKSKLSDQEIEQTLQAFEARVKSSAQAKMEKDAADNEAKGKEYREKFAKEKGVKTSSTGLVYQVVEAGKGEAPKDSDTVVVNYKGTLIDGKEFDNSYTRGEPLSFRLDGVIPGWTEGLKNIKKGGKIKLVIPPELAYGKAGVPGIPPNSTLVFDVELLDVKPAPKADAKPEADAKAADSAKK
B15: Peptidoglycan-associated lipoprotein (protein, UniProt P0A912 22-173)
chain: CSSNKNASNDGSEGMLGAGTGMDANGGNGNMSSEEQARLQMQQLQQNNIVYFDLDKYDIRSDFAQMLDAHANFLRSNPSYKVTVEGHADERGTPEYNISLGERRANAVKMYLQGKGVSADQISIVSYGKEKPAVLGHDEAAYSKNRRAVLVY
B16: Cell division protein ZapA (protein, UniProt P0ADS2 1-109)
chain: MSAQPVDIQIFGRSLRVNCPPDQRDALNQAADDLNQRLQDLKERTRVTNTEQLVFIAALNISYELAQEKAKTRDYAASMEQRIRMLQQTIEQALLEQGRITEKTNQNFE

No constants are given. Whether binding was seen depends on the method and setting. Binding seen in cells or lysates may run through a third protein. These calls come from enrichment with a bait or labelling near it, and not all partners need be listed.

One assay concerns the target T1, MCR-1 full-length protein (E. coli (strain SHP45)). Nature of the assay: affinity purification with mass spectrometry; Co-IP with anti-MCR-1 mAb 3G4 and G-Sepharose from E. coli lysates (50 mM Tris-HCl pH 7.5, 300 mM NaCl, 1 mM PMSF, 1% DDM), 4°C; co-precipitates eluted with 0.2 M glycine pH 2.3 and identified by nano LC-MS/MS; anti-IgG and empty vector pull-downs as negative controls.
For the molecule “Elongation factor Tu (from UniProt P0A6N2 1-394)”, the binding entry is recorded as “binds”.
On to “50S ribosomal protein L11 (from UniProt P0A7J7 1-142)”, for which the binding entry was “binds”.
As to B1, the binding entry was “binds”.
For B2, the binding result is “binds”.
With B3, the binding entry was “binds”.
As to B4, the binding result is listed as “binds”.
B5: the binding entry is recorded as “binds”.
Regarding B6, the binding entry is on record as “binds”.
Take B7: the binding result was “binds”.
On to B8, for which the binding result is on record as “binds”.
With B9, the binding entry is “binds”.
As to B10, the binding result is given as “binds”.
For B11, the binding result is recorded as “binds”.
Regarding B12, the binding entry is reported as “binds”.
With B13, the binding entry is on record as “binds”.
As to B14, the binding result was “binds”.
Consider B15, for which the binding result was “binds”.
On to B16, for which the binding result is recorded as “binds”.

A further assay addresses T2, MCR-1 (from pUC19-mcr-1) (E. coli). The assay is described as above.
As for GroL (from UniProt P0A6F5 1-548), the binding result was “binds”.
Consider “Elongation factor Tu (from UniProt P0A6N2 1-394)”, for which the binding result is recorded as “binds”.
With “50S ribosomal protein L11 (from UniProt P0A7J7 1-142)”, the binding entry is given as “binds”.
The same measure, in the same setting: to B13 belongs “binds”.

(Values after paper PMC7868338, “Identification of Functional Interactome of Colistin Resistance Protein MCR-1 in Escherichia coli” (Frontiers in Microbiology, 2020).)
